Measurements: article doi:10.1101/2025.11.17.688780
Residue numbers refer to the chain shown, from its start. Numbers in names are those of the source. Results are given in words; binding and its absence hold for the method and conditions named. Binding seen in cells or lysates may run through a third protein. A yes stands for co-enrichment or nearness to the bait. Other partners may have been found. Tags and fused reporters may be left off the sequences shown. Blank lines part the entries; values can stand above or below the binder they belong to.

Biological target: T1, Brn1-V5 (S. cerevisiae) (UniProt P38170)
T1 sequence: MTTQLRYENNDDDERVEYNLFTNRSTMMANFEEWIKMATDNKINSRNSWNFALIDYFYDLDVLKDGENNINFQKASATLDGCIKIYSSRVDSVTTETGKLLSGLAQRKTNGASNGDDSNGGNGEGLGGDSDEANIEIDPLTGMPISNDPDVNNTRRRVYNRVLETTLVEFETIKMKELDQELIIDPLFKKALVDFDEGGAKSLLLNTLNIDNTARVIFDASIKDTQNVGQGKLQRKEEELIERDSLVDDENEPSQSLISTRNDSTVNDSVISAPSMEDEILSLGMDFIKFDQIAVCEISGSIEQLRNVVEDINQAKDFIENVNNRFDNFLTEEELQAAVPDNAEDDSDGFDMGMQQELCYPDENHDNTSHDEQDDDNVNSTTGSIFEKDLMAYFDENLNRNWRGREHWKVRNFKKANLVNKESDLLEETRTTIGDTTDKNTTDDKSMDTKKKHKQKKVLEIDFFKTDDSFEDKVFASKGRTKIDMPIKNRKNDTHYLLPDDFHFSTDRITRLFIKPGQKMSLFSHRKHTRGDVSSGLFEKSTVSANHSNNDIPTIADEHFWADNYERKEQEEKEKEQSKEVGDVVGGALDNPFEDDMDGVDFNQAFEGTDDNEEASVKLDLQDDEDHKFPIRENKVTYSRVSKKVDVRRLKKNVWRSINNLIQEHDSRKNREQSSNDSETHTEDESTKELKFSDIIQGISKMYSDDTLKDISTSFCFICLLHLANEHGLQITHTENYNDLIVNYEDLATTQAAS
Assay: affinity purification with mass spectrometry

B2: Smc2 D1112A, HA tagged (protein, UniProt P38989 1-1170)
chain: MKVEELIIDGFKSYATRTVITDWDPQFNAITGLNGSGKSNILDAICFVLGIASMSTVRASSLQDLIYKRGQAGVTKASVTIVFDNTDKSNSPIGFTNSPQISVTRQVVLGGTSKYLINGHRAPQQSVLQLFQSVQLNINNPNFLIMQGKITKVLNMKPSEILSLIEEAAGTKMFEDRREKAERTMSKKETKLQENRTLLTEEIEPKLEKLRNEKRMFLEFQSTQTDLEKTERIVVSYEYYNIKHKHTSIRETLENGETRMKMLNEFVKKTSEEIDSLNEDVEEIKLQKEKELHKEGTISKLENKENGLLNEISRLKTSLSIKVENLNDTTEKSKALESEIASSSAKLIEKKSAYANTEKDYKMVQEQLSKQRDLYKRKEELVSTLTTGISSTGAADGGYNAQLAKAKTELNEVSLAIKKSSMKMELLKKELLTIEPKLKEATKDNELNVKHVKQCQETCDKLRARLVEYGFDPSRIKDLKQREDKLKSHYYQTCKNSEYLKRRVTNLEFNYTKPYPNFEASFVHGVVGQLFQIDNDNIRYATALQTCAGGRLFNVVVQDSQTATQLLERGRLRKRVTIIPLDKIYTRPISSQVLDLAKKIAPGKVELAINLIRFDESITKAMEFIFGNSLICEDPETAKKITFHPKIRARSITLQGDVYDPEGTLSGGSRNTSESLLVDIQKYNQIQKQIETIQADLNHVTEELQTQYATSQKTKTIQSDLNLSLHKLDLAKRNLDANPSSQIIARNEEILRDIGECENEIKTKQMSLKKCQEEVSTIEKDMKEYDSDKGSKLNELKKELKLLAKELEEQESESERKYDLFQNLELETEQLSSELDSNKTLLHNHLKSIESLKLENSDLEGKIRGVEDDLVTVQTELNEEKKRLMDIDDELNELETLIKKKQDEKKSSELELQKLVHDLNKYKSNTNNMEKIIEDLRQKHEFLEDFDLVRNIVKQNEGIDLDTYRERSKQLNEKFQELRKKVNPNIMNMIENVEKKEAALKTMIKTIEKDKMKIQETISKLNEYKRETLVKTWEKVTLDFGNIFADLLPNSFAKLVPCEGKDVTQGLEVKVKLGNIWKESLIELSGGQRSLIALSLIMALLQFRPAPMYILAEVDAALDLSHTQNIGHLIKTRFKGSQFIVVSLKEGMFANANRVFRTRFQDGTSVVSIM
- binding: binds

B3: Smc2 R58A, HA tagged (protein, UniProt P38989 1-1170)
chain: B2 chain with R58A, A1112D
- binding: binds

B5: Smc2 S1085R, HA tagged (protein, UniProt P38989 1-1170)
chain: B2 chain with S1085R, A1112D
- binding: binds

B8: Smc4 (protein, UniProt Q12267 1-1418)
chain: MSDSPLSKRQKRKSAQEPELSLDQGDAEEDSQVENRVNLSENTPEPDLPALEASYSKSYTPRKLVLSSGENRYAFSQPTNSTTTSLHVPNLQPPKTSSRGRDHKSYSQSPPRSPGRSPTRRLELLQLSPVKNSRVELQKIYDRHQSSSKQQSRLFINELVLENFKSYAGKQVVGPFHTSFSAVVGPNGSGKSNVIDSMLFVFGFRANKMRQDRLSDLIHKSEAFPSLQSCSVAVHFQYVIDESSGTSRIDEEKPGLIITRKAFKNNSSKYYINEKESSYTEVTKLLKNEGIDLDHKRFLILQGEVENIAQMKPKAEKESDDGLLEYLEDIIGTANYKPLIEERMGQIENLNEVCLEKENRFEIVDREKNSLESGKETALEFLEKEKQLTLLRSKLFQFKLLQSNSKLASTLEKISSSNKDLEDEKMKFQESLKKVDEIKAQRKEIKDRISSCSSKEKTLVLERRELEGTRVSLEERTKNLVSKMEKAEKTLKSTKHSISEAENMLEELRGQQTEHETEIKDLTQLLEKERSILDDIKLSLKDKTKNISAEIIRHEKELEPWDLQLQEKESQIQLAESELSLLEETQAKLKKNVETLEEKILAKKTHKQELQDLILDLKKKLNSLKDERSQGEKNFTSAHLKLKEMQKVLNAHRQRAMEARSSLSKAQNKSKVLTALSRLQKSGRINGFHGRLGDLGVIDDSFDVAISTACPRLDDVVVDTVECAQHCIDYLRKNKLGYARFILLDRLRQFNLQPISTPENVPRLFDLVKPKNPKFSNAFYSVLRDTLVAQNLKQANNVAYGKKRFRVVTVDGKLIDISGTMSGGGNHVAKGLMKLGTNQSDKVDDYTPEEVDKIERELSERENNFRVASDTVHEMEEELKKLRDHEPDLESQISKAEMEADSLASELTLAEQQVKEAEMAYVKAVSDKAQLNVVMKNLERLRGEYNDLQSETKTKKEKIKGLQDEIMKIGGIKLQMQNSKVESVCQKLDILVAKLKKVKSASKKSGGDVVKFQKLLQNSERDVELSSDELKVIEEQLKHTKLALAENDTNMNETLNLKVELKEQSEQLKEQMEDMEESINEFKSIEIEMKNKLEKLNSLLTYIKSEITQQEKGLNELSIRDVTHTLGMLDDNKMDSVKEDVKNNQELDQEYRSCETQDESEIKDAETSCDNYHPMNIDETSDEVSRGIPRLSEDELRELDVELIESKINELSYYVEETNVDIGVLEEYARRLAEFKRRKLDLNNAVQKRDEVKEQLGILKKKRFDEFMAGFNIISMTLKEMYQMITMGGNAELELVDSLDPFSEGVTFSVMPPKKSWRNITNLSGGEKTLSSLALVFALHKYKPTPLYVMDEIDAALDFRNVSIVANYIKERTKNAQFIVISLRNNMFELAQQLVGVYKRDNRTKSTTIKNIDILNRT
- binding: binds

Other lines, results leading:

- binding: binds
B1: Ycg1 (protein, UniProt Q06680 1-1035)
chain: MQDPDGIDINTKIFNSVAEVFQKAQGSYAGHRKHIAVLKKIQSKAVEQGYEDAFNFWFDKLVTKILPLKKNEIIGDRIVKLVAAFIASLERELILAKKQNYKLTNDEEGIFSRFVDQFIRHVLRGVESPDKNVRFRVLQLLAVIMDNIGEIDESLFNLLILSLNKRIYDREPTVRIQAVFCLTKFQDEEQTEHLTELSDNEENFEATRTLVASIQNDPSAEVRRAAMLNLINDNNTRPYILERARDVNIVNRRLVYSRILKSMGRKCFDDIEPHIFDQLIEWGLEDRELSVRNACKRLIAHDWLNALDGDLIELLEKLDVSRSSVCVKAIEALFQSRPDILSKIKFPESIWKDFTVEIAFLFRAIYLYCLDNNITEMLEENFPEASKLSEHLNHYILLRYHHNDISNDSQSHFDYNTLEFIIEQLSIAAERYDYSDEVGRRSMLTVVRNMLALTTLSEPLIKIGIRVMKSLSINEKDFVTMAIEIINDIRDDDIEKQEQEEKIKSKKINRRNETSVDEEDENGTHNDEVNEDEEDDNISSFHSAVENLVQGNGNVSESDIINNLPPEKEASSATIVLCLTRSSYMLELVNTPLTENILIASLMDTLITPAVRNTAPNIRELGVKNLGLCCLLDVKLAIDNMYILGMCVSKGNASLKYIALQVIVDIFSVHGNTVVDGEGKVDSISLHKIFYKVLKNNGLPECQVIAAEGLCKLFLADVFTDDDLFETLVLSYFSPINSSNEALVQAFAFCIPVYCFSHPAHQQRMSRTAADILLRLCVLWDDLQSSVIPEVDREAMLKPNIIFQQLLFWTDPRNLVNQTGSTKKDTVQLTFLIDVLKIYAQIEKKEIKKMIITNINAIFLSSEQDYSTLKELLEYSDDIAENDNLDNVSKNALDKLRNNLNSLIEEINERSETQTKDENNTANDQYSSILGNSFNKSSNDTIEHAADITDGNNTELTKTTVNISAVDNTTEQSNSRKRTRSEAEQIDTSKNLENMSIQDTSTVAKNVSFVLPDEKSDAMSIDEEDKDSESFSEVC

- binding: binds
B4: Smc2 L665R, HA tagged (protein, UniProt P38989 1-1170)
chain: B2 chain with L665R, A1112D

- binding: binds
B6: Smc2 E1113Q, HA tagged (protein, UniProt P38989 1-1170)
chain: B2 chain with A1112D, E1113Q

- binding: binds
B7: Smc2 L567K, HA tagged (protein, UniProt P38989 1-1170)
chain: B2 chain with L567K, A1112D
